Laboratory results: PubChem BioAssay AID602196 (INSERM, 2012)

- Aim: 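Modifiers of cisplatin sensitivity in A549 cells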
- Cell system: human A549 lung cancer cells
- Reagent: siRNA pair against human genes
- Timing: 48 h transfection before cisplatin; time from cisplatin to read-out not stated
- Conditions: cisplatin at a dose killing half of control-siRNA cells; exact dose and duration not given
- Read-out: 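Cisplatin cell death as a shift from the 50% death seen with control siRNA; siRNAs toxic or growth-blocking alone scored 0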
- Direction: two-siRNA summed score (-2 to +2): higher = both siRNAs protect from cisplatin killing; -2 means both sensitise; mean protection from cisplatin (shift in death) and protection from cisplatin (shift in death), siRNA C and protection from cisplatin (shift in death), siRNA D: higher = protection from cisplatin killing
- Call rule: 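siRNAs harmful alone (LDH or WST-1) get 0; others get +1 for less and -1 for more cisplatin killing; genes are active when the two siRNAs give the same sign, summing to ±2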
- Calls: active = both siRNAs shift cisplatin killing the same way; inactive = no consistent shift, or siRNA harmful alone
The deposit covers about 23,000 reagents; below is a random part of them. 455 of all reagents (2%) were called active. 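Active includes both protection and sensitisation; some change values fall well beyond the stated -50 to +50 range.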 Reagent sequences are not shown. Not given: the amount of reagent.

| gene | two-siRNA summed score (-2 to +2) | mean protection from cisplatin (shift in death) (%) | protection from cisplatin (shift in death), siRNA C (%) | protection from cisplatin (shift in death), siRNA D (%) | Outcome |
| --- | --- | --- | --- | --- | --- |
| CENATAC | 2 | 12.6 | 14.2 | 10.9 | active |
| IQGAP1 | 0 | -8.2 | -11.3 | -5.1 | inactive |
| RAF1 | 0 | 7.2 | 6.2 | 8.1 | inactive |
| ITIH2 | 0 | 3 | 12.3 | -6.3 | inactive |
| DBN1 | 0 | 8.1 | 13.2 | 3 | inactive |
| HMBS | -1 | -4.1 | -13.7 | 5.5 | inactive |
| DNAJB4 | 1 | 8.6 | 12 | 5.2 | inactive |
| ITGB6 | -1 | -29.3 | -23.9 | -34.6 | inactive |
| LRRC71 | 0 | 12.2 | 10.1 | 14.4 | inactive |
| SH2D3C | 0 | -16.5 | -8.1 | -24.9 | inactive |
| ZSCAN21 | 0 | 7.6 | 4.2 | 11.1 | inactive |
| SELENOW | 0 | 6.6 | 9.5 | 3.7 | inactive |
| ATP6V0A4 | 0 | 17 | 21.6 | 12.4 | inactive |
| LRP10 | 0 | -4.9 | -9.7 | -0.1 | inactive |
| RNF14 | 0 | -0.6 | -4.2 | 3 | inactive |
| LOC197387 (retired record) | 1 | 11.4 | 7.4 | 15.4 | inactive |
| EPHA6 | 1 | 9.7 | 13.9 | 5.5 | inactive |
| CASQ2 | 0 | 2.4 | -0.1 | 4.9 | inactive |
| HSPA12A | 0 | 18.8 | 29.9 | 7.7 | inactive |
| DAGLA | 2 | 13.9 | 12.3 | 15.5 | active |
| SOCS6 | 1 | 26.3 | 37.7 | 14.9 | inactive |
| NSUN3 | 0 | 8 | 12.6 | 3.3 | inactive |
| GLYR1 | 0 | -3 | -11.8 | 5.8 | inactive |
| MCCC2 | 0 | -0.5 | -10.7 | 9.8 | inactive |
| PENK | 0 | 7 | 6.4 | 7.7 | inactive |
| GRIK5 | -1 | -5 | -21.8 | 11.9 | inactive |
| WDR81 | 0 | 4.1 | 10.7 | -2.6 | inactive |
| GABARAPL1 | 0 | 8.7 | 15.3 | 2.2 | inactive |
| RAP1GAP | -1 | -13.5 | -33.3 | 6.3 | inactive |
| NUDT6 | 0 | 2.7 | -10.4 | 15.8 | inactive |
| CD55 | 0 | 5.1 | 14.1 | -3.8 | inactive |
| TRIB1 | 1 | 4.5 | 0.6 | 8.4 | inactive |
| SMC6 | 0 | -3.1 | -12.3 | 6.2 | inactive |
| OR2K2 | 0 | 14 | 21.5 | 6.6 | inactive |
| GNAO1 | 1 | 7.4 | 22 | -7.2 | inactive |
| LOC342979 | 1 | 10.9 | 11.4 | 10.5 | inactive |
| ASIP | 0 | 0.7 | -1.2 | 2.7 | inactive |
| VPS36 | 0 | 6.5 | 12.2 | 0.8 | inactive |
| H3C4 | 0 | 25.3 | 41.1 | 9.6 | inactive |
| LOC389841 | 0 | -5.2 | -5.3 | -5.1 | inactive |
| HLA-DQA1 | 0 | -1 | 2.7 | -4.7 | inactive |
| LOC442437 | 0 | 8.4 | 6.3 | 10.4 | inactive |
| FASTK | 1 | 10.8 | 29.6 | -8 | inactive |
| LOC440933 | 1 | 13.1 | 14.5 | 11.7 | inactive |
| LOC388593 | 0 | 26.2 | 5.4 | 47 | inactive |
| OR2T10 | 0 | 7 | 5 | 9.1 | inactive |
| TMEM132E | 1 | 6.7 | 19.5 | -6.1 | inactive |
| LOC389416 | -1 | -15 | -0.9 | -29.2 | inactive |
| PCDHA7 | 0 | 5.3 | 6.6 | 4.1 | inactive |
| ITM2B | -1 | -8.6 | 5.2 | -22.4 | inactive |
| PADI3 | 0 | -2.4 | -1.2 | -3.6 | inactive |
| KIAA1345 | 0 | 19.9 | 27.3 | 12.4 | inactive |
| LOC284591 | 0 | 5.6 | 12.4 | -1.1 | inactive |
| LOC401048 | 0 | 8.2 | 10.5 | 5.9 | inactive |
| BAG6 | 1 | 13.7 | 12.2 | 15.3 | inactive |
| DEFB1 | -2 | -14.3 | -16.2 | -12.5 | active |
| MUC19 | 0 | 11.6 | 24.2 | -0.9 | inactive |

9 entries from above, ordered by “mean protection from cisplatin (shift in death) (%)”, descending:
| gene | two-siRNA summed score (-2 to +2) | mean protection from cisplatin (shift in death) (%) | protection from cisplatin (shift in death), siRNA C (%) | protection from cisplatin (shift in death), siRNA D (%) | Outcome |
| --- | --- | --- | --- | --- | --- |
| LRRC71 | 0 | 12.2 | 10.1 | 14.4 | inactive |
| DNAJB4 | 1 | 8.6 | 12 | 5.2 | inactive |
| DBN1 | 0 | 8.1 | 13.2 | 3 | inactive |
| ZSCAN21 | 0 | 7.6 | 4.2 | 11.1 | inactive |
| RAF1 | 0 | 7.2 | 6.2 | 8.1 | inactive |
| ITIH2 | 0 | 3 | 12.3 | -6.3 | inactive |
| HMBS | -1 | -4.1 | -13.7 | 5.5 | inactive |
| SH2D3C | 0 | -16.5 | -8.1 | -24.9 | inactive |
| ITGB6 | -1 | -29.3 | -23.9 | -34.6 | inactive |
